For this data set, the system named is BcHSFA4A. Nature of the data set: EMSA. As to conditions: Chemiluminescent EMSA kit (Beyotime GS009), 4 ug protein, 50 nM biotin probe, 6% native gel, pH and temperature not stated, recombinant protein, protein details: GST (pGEX-4T-1, N-terminal), label: biotin (cold version unlabeled).
[1] abbreviates: with BcWRKY33A-GST, binding signal unchanged vs GST.

For at least one entry, the source does not settle the construct or the ends of the probe.

On to “CTTCTAAGAATCTTCTAAGAATCTTCTAAGAAT (double strand) [HSE3 probe (BcZAT12 promoter HSE motif 3, three copies)]”, for which the binding result is recorded as “binds”. The binding result under setting [1] was “binds”.
“AGACGCTTCTGGAACTTCAAACTGAAAAATTATCAGACCGAACTGTTCACTCT (double strand) [HSP probe (BcHSP17.6A promoter, HSE1 and HSE2)]”: the binding result is “binds”. The binding result under setting [1] was “binds”.
